# Percent effect of library compounds

The chains behind the UniProt entries cited, without tags or fusion partners.
UniProt I6X8D2, whole entry: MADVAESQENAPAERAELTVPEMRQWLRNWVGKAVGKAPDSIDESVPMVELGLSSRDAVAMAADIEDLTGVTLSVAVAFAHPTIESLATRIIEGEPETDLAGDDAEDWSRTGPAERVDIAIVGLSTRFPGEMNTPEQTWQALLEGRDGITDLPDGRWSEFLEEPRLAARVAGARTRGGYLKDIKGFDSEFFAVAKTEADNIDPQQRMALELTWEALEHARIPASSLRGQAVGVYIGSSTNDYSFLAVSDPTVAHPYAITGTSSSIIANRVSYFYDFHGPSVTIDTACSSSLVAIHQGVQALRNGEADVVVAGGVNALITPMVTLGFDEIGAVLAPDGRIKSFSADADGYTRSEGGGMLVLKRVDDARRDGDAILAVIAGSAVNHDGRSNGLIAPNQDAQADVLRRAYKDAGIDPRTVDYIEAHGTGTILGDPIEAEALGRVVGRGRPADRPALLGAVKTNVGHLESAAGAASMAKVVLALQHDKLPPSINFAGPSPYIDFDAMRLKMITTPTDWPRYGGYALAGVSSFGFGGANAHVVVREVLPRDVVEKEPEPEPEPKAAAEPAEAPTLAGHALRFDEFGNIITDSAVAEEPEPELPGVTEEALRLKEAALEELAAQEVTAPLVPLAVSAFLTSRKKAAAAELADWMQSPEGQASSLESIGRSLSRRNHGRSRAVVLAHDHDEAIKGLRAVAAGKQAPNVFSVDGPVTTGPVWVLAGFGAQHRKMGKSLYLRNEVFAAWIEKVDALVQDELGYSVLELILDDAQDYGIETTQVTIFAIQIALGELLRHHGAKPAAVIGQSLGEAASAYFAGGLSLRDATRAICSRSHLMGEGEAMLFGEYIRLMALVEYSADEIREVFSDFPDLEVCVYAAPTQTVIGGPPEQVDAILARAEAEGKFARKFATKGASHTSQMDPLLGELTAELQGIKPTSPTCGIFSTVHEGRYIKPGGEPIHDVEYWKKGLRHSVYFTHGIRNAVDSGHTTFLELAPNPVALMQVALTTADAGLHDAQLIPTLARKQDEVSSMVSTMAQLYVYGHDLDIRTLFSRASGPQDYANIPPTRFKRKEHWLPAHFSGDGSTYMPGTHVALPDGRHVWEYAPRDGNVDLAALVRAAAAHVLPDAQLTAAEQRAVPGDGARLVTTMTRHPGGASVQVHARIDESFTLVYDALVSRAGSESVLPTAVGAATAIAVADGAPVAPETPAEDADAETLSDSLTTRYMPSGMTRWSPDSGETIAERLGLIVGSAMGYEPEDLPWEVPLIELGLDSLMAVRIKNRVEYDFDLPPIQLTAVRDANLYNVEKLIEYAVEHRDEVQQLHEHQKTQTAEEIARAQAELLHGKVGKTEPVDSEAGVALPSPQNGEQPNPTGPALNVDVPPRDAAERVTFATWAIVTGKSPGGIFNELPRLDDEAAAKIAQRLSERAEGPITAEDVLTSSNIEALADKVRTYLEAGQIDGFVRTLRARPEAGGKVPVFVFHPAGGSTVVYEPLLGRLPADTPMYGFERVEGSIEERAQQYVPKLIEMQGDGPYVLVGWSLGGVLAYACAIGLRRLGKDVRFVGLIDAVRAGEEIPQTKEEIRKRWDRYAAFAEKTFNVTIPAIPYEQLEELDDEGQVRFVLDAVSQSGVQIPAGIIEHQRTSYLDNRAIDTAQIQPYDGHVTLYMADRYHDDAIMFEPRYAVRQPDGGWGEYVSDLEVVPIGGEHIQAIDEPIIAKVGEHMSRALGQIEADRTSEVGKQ

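Polyketide synthase Pks13, Mycobacterium tuberculosis (UniProt I6X8D2). Enzyme assay of the thioesterase domain of polyketide synthase 13; the read-out is not stated. Concentration: 30 µM. The record gives no direction; the compounds picked for IC50 retests had high values, so higher reads as stronger inhibition. About 67,000 compounds were tested under these conditions; 0.46% (about 300) showed 50% or more at least once.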

Results are given as percent effect.
The record does not define 0% and 100%; most values in the screen are far below 50% and negative numbers occur (in some assays of this library far below -100).
Compounds were drawn at random from those tested, without regard to their results.

| # | Compound | percent effect |
|---|---|---|
| 1 | `CC(C)CNC(=O)N1C[C@@H]2CCCN[C@@H]2C1` | -11.93 |
| 2 | `COc1ccc(-c2nc(CNCCn3cccn3)cs2)cc1` | 23.79 |
| 3 | `Cc1cc(CNC(=O)c2ccno2)c(C)o1` | -13.14 |
| 4 | `COc1ncc(C(=O)NCc2ccc(Br)cc2)cn1` | -21.57 |
| 5 | `Cc1cccn2cc(CC(=O)N3CCCC(n4cncn4)C3)nc12` (centres undefined) | -4.309 |
| 6 | `CCn1cc(C(=O)NCC(OC)c2cccc(Cl)c2)cn1` (centres undefined) | -36.88 |
| 7 | `COC(=O)C1CN(Cc2ccc(-c3ccncc3)cc2F)C[C@@H](C)O1` (some centres undefined) | 2.565 |
| 8 | `O=C(NCC1CC1)c1cc2c(s1)CCN2c1ncccn1` | 6.859 |
| 9 | `COc1ccc(-c2nc3c([nH]2)CCNC3C(=O)O)c2ccccc12` (centres undefined) | -18.33 |
| 10 | `CC(OCCCNC(=O)c1cccnc1O)c1ccccc1` (centres undefined) | -15.38 |
| 11 | `O=c1ccc(-c2cccs2)nn1CN1CCCCCC1` | -29.5 |
| 12 | `OC1(CN2CCOC(Cn3cccn3)C2)CCCCC1` (centres undefined) | -23.73 |
| 13 | `CC(C(=O)NCc1ccc(N2CCNC(=O)C2)cc1)n1cncn1` (centres undefined) | -0.05132 |
| 14 | `NC(=O)C1Cn2ccnc2C2(CCN(C(=O)NC3CCCC3)CC2)O1` (centres undefined) | -18.48 |
| 15 | `c1ccc(CN2CCC3(CC2)Nc2ccccc2CO3)cc1` | -5.005 |
| 16 | `CNc1ncc(CN(C)C(=O)[C@@]23CNC[C@@H]2CN(C(=O)C2CC2)C3)cn1` | 1.761 |
| 17 | `COC(=O)N1C[C@H]2CC[C@@H]1CN(Cc1cscn1)C2` | 3.953 |
| 18 | `CCC(=O)N1CCC2(CC1)CC(CC(N)=O)c1ccc(F)cc12` (centres undefined) | -20.51 |
| 19 | `CC1CCN(C(=O)C2(Cc3cc(C4CCOC4)no3)CCNCC2)CC1` (centres undefined) | 10.91 |
| 20 | `CCOc1ccccc1C(N)CC(C)C` (centres undefined) | 4.602 |
| 21 | `CN1CCN(c2ccc(NCc3ccc([S+](C)[O-])cc3)cn2)CC1` (centres undefined) | -24.81 |
| 22 | `c1cncc(CNCc2cccs2)c1` | -1.48 |
| 23 | `CCS(=O)(=O)N1CCc2ccc(NC(=O)NCc3ccccc3)cc21` | 0.5781 |
| 24 | `CS(=O)(=O)NCCCNc1ccc(C(F)(F)F)cc1C#N` | -23.45 |
| 25 | `Cc1ccc(CCc2nc(C3CCOC3)no2)o1` (centres undefined) | 5.896 |
| 26 | `CC(C)Cc1cc(C(=O)NC(C)(CO)CO)n(C)n1` | 4.692 |
| 27 | `CCCc1noc(-c2ccc(-n3ncc(C(=O)O)c3C)nc2)n1` | -22.83 |
| 28 | `O=C1CC(c2cccnc2)c2c(c(C(=O)O)cn2-c2cccc(F)c2)N1` (centres undefined) | -41.81 |
| 29 | `O=C(Cn1cncn1)NCC1CCN(Cc2ccccc2Cl)CC1` | -2.031 |
| 30 | `CC(C)c1cncnc1-c1cc(F)cc2c1OC(CN)C2` (centres undefined) | -3.039 |
| 31 | `O=C(O)c1ccc2c(CN3CCCC3)c[nH]c2c1` | -2.369 |
| 32 | `CC(C)C1CN(C(=O)c2ccc(C(N)=O)cc2)CCS1` (centres undefined) | -10.71 |
| 33 | `CS(=O)(=O)CCOCCNc1ccc(C#N)cc1F` | -36.58 |
| 34 | `Cn1cnc2c1CCN(CCCc1ccccc1)C2` | -18.03 |
| 35 | `CC(C)(C)CN1CCN2C(=O)N(C3CCCCC3)C[C@H]2C1` | -33.64 |
| 36 | `Cc1nn(C)c(C)c1CNCc1cccnc1N1CCOCC1` | 16.22 |
| 37 | `CSCCNC(=O)c1coc(COc2ccc(F)cc2)n1` | -22.98 |
| 38 | `CC(C)Oc1ncccc1CNC(=O)NC(C)c1cccs1` (centres undefined) | -7.525 |
| 39 | `Cc1cc(C)nc(CN(C)c2nc(C3CCCC3)nc3c2cnn3C)c1` | -1.065 |
| 40 | `COc1ccc(C)cc1CC(=O)NC1(C#N)CCOCC1` | -9.875 |
| 41 | `Cc1cc(C)n(CC2CCCCN2C(=O)c2ccc3[nH]nnc3c2)n1` (centres undefined) | -20.55 |
| 42 | `Cc1cc(CN(C)C(=O)c2ccnc(N(C)C)c2)no1` | -2.632 |
| 43 | `CCn1c(CN(C)C(C)CSC)nc2c(F)cccc21` (centres undefined) | -4.467 |
| 44 | `CNC(=O)CN1CCO[C@H]2CN(C(=O)c3ccncc3F)C[C@H]21` | -31.58 |
| 45 | `CC(C)(C)NCC(=O)N1CCCC(n2ccnc2)C1` (centres undefined) | -7.173 |
| 46 | `CCS(=O)(=O)c1ccccc1N1CCC(NC(=O)c2ccc[nH]2)CC1` | -7.879 |
| 47 | `CC(C)C(=O)NCCCn1ncc2c(Cl)cccc21` | -4.231 |
| 48 | `c1cc(CNCc2ccnc(N3CCCCC3)c2)c2c(c1)OCCCO2` | -17.1 |
| 49 | `Cc1ccsc1C(=O)N1CC(C(=O)N2CCOCC2)C2(CCOCC2)C1` (centres undefined) | -21.17 |
| 50 | `CN(C)CC1CN(Cc2coc(-c3cccc(F)c3)n2)CCO1` (centres undefined) | -26.89 |
| 51 | `COc1cccc(OC2CN(C(=O)c3c(C)noc3C)C2)c1` | -10.33 |
| 52 | `CCn1c(C2CCCN2Cc2noc(C(C)(C)C)n2)nc2ccccc21` (centres undefined) | -0.9458 |
| 53 | `Cc1csc(S(=O)(=O)N2CCN(C)C3(CCC(=O)N(C)CC3)C2)c1` (centres undefined) | -1.665 |
| 54 | `Cc1ccc(CN2CCCn3c(nc(CN4CCCC4)cc3=O)C2)s1` | -3.482 |
| 55 | `COc1cc(N2C[C@H](C(=O)NC3CC3)[C@@H]3CCO[C@@H]3C2)ncn1` | 3.793 |

Some entries from above, unchanged:

- Cc1cc(C)n(CC2CCCCN2C(=O)c2ccc3[nH]nnc3c2)n1 (centres undefined) | -20.55%
- c1cc(CNCc2ccnc(N3CCCCC3)c2)c2c(c1)OCCCO2 | -17.1%
- CN1CCN(c2ccc(NCc3ccc([S+](C)[O-])cc3)cn2)CC1 (centres undefined) | -24.81%
- COc1ccc(C)cc1CC(=O)NC1(C#N)CCOCC1 | -9.875%
- COc1ccc(-c2nc3c([nH]2)CCNC3C(=O)O)c2ccccc12 (centres undefined) | -18.33%
- CNC(=O)CN1CCO[C@H]2CN(C(=O)c3ccncc3F)C[C@H]21 | -31.58%
- COC(=O)C1CN(Cc2ccc(-c3ccncc3)cc2F)C[C@@H](C)O1 (some centres undefined) | 2.565%

From ChEMBL document CHEMBL3988442, “University of Dundee, Small-Polar-MMV Screening Library” (2021).